The list shows a part of the results.

Protein sequences, listed by entry. Tags and fused reporters are not part of them.
UniProt Q0JBA9, entry or part of it: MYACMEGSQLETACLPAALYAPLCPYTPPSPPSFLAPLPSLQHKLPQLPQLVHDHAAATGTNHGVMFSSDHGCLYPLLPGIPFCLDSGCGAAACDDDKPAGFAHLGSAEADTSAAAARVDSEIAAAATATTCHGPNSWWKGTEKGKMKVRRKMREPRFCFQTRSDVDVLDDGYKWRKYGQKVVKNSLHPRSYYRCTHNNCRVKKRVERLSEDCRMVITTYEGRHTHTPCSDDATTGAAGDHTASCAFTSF

In this assay the target is OsWRKY34 (Oryza sativa, UniProt Q0JBA9 1-250). As to the kind of experiment: protein-binding microarray (RPBM); PBS, 2% BSA, 51.3 ng/ul salmon testes DNA, 50 uM zinc acetate, 200 nM TF, 25 C, 1 h; high values mean tight binding. To be noted: protein: recombinant; tags: N-terminal polyhistidine and DsRed monomer fusion (pET32a); label: CyDye5-dUTP incorporated in the synthesized complementary strand; 3' TTTTT single-stranded linker to array surface; dsDNA, one strand shown. The procedure, abridged: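 Binding signal here means per-feature fluorescence intensity in arbitrary units. The values were read on an Axon 4000B scanner after a custom Agilent array, double-stranded by primer extension with Cy5-dUTP, was incubated with 200 nM protein at 25 °C for 1 h in PBS with 2% BSA, salmon testes DNA and 50 µM zinc acetate, then washed. The proteins were transcription factors with an N-terminal polyhistidine tag and DsRed, expressed in E. coli BL21-CodonPlus and purified on Ni–NTA.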
On to “GCCTAGTCTAGTTTTTATGTGTTCACTGATGATTTTTAAACGGAGTCACCTAGTGCAG”, for which the binding signal was 8910 fluorescence intensity (a.u.). As to “TCCACCGTCCAAGCCAGATCCAACGGCCCACATCCGATCCCGGAGTCACCTAGTGCAG”, the binding signal is 10400 fluorescence intensity (a.u.). For the sequence “ATAGCCAGCTTCCTTTCTTCTTCGTCACACCGACTTAACACGGAGTCACCTAGTGCAG”, the binding signal is 9110 fluorescence intensity (a.u.). The same measure for “GTTTTTCCTCGTCCTGTGCACGCCAAGATTTCCCAAGAAACGGAGTCACCTAGTGCAG”: 9650 fluorescence intensity (a.u.). Consider “CATAAATAGGAGTGACATTTTTTTATTTGCCATATTTGTACGGAGTCACCTAGTGCAG”, for which the binding signal was 8380 fluorescence intensity (a.u.). With “TTCTGAATCGATCAAGCAACTCCATCTCCTAGCTAGGCCTCGGAGTCACCTAGTGCAG”, the binding signal is 8100 fluorescence intensity (a.u.). For “AATACATTTCGCATGTTCTATTGCATCCTTTGAAGGCGATCGGAGTCACCTAGTGCAG”, the binding signal is 8160 fluorescence intensity (a.u.). The same measure for “CCTGGTGATTGTGGGGCTCTACCTTGTTCTGTGGGGCAAACGGAGTCACCTAGTGCAG”: 11600 fluorescence intensity (a.u.); for “TAATGGGTGCTGTCCTGTTGCATATTCTATCCGTTCTATACGGAGTCACCTAGTGCAG”: 10600 fluorescence intensity (a.u.). For the sequence “TTGCACACCCTCTCATGCCACTCCCGTCAGTTGACCGTGTCGGAGTCACCTAGTGCAG”, the binding signal is 8840 fluorescence intensity (a.u.). Turning to “AATATGGAATTACCCACAACCTTTTCGATCTCTCTTTATACGGAGTCACCTAGTGCAG”, the binding signal is 8780 fluorescence intensity (a.u.). For the sequence “AACCATGCCATTATAATTTTGCAAAGTTTGAGATATACCACGGAGTCACCTAGTGCAG”, the binding signal is 8210 fluorescence intensity (a.u.). To “CTGCGTTTCGATCGATATCCTCTGCATGCAATTCTGACCGCGGAGTCACCTAGTGCAG” belongs 9210 fluorescence intensity (a.u.); to “CGGACGCCGCTGCAGTACCCAATGACGACACCACCACCACCGGAGTCACCTAGTGCAG”, 8310 fluorescence intensity (a.u.); to “AATTAATTTTTATTTTCTAATAAACTGTTTTAGCTTATTACGGAGTCACCTAGTGCAG”, 8100 fluorescence intensity (a.u.). The same measure for “GTTTGAGTTTTCTAATTTCTGCTTTCTAATTCATTTTTTCCGGAGTCACCTAGTGCAG”: 9120 fluorescence intensity (a.u.); for “TGTTTTTTTTGGGTTCTTGGGAGAGGCTCGCGCGGCTGCGCGGAGTCACCTAGTGCAG”: 8950 fluorescence intensity (a.u.); for “GGTAGGAGAGTAGGGGATCTGTTGGAGTTGTTTTTTTTTTCGGAGTCACCTAGTGCAG”: 13300 fluorescence intensity (a.u.). As to “CGTTGTGTCAAGTGTTCCATCCTTTTGAAATATTAGCTCTCGGAGTCACCTAGTGCAG”, the binding signal was 11100 fluorescence intensity (a.u.). Regarding “TTTCCATTTTACTTCGTCAGCGCACACTATCTCCTGGCGCCGGAGTCACCTAGTGCAG”, the binding signal is 12600 fluorescence intensity (a.u.). In the case of “CTCTTCGCCGCCGCCGTCCTCCTCGCTATGCCGGGCCTCACGGAGTCACCTAGTGCAG”, the binding signal was 8120 fluorescence intensity (a.u.).

Turning to “GGGTTTAGGTTTTTACAGGGGAATTTACATGGTTGCCCTTCGGAGTCACCTAGTGCAG”, the binding signal was 8550 fluorescence intensity (a.u.). On to “ATCTATGTTGCAACATCATCTGGCTCGCGCTCAGAACCATCGGAGTCACCTAGTGCAG”, for which the binding signal was 10500 fluorescence intensity (a.u.). As for “CATTCTGGAAACTACCTCACCTCTTTAGTTTGAATCTTTCCGGAGTCACCTAGTGCAG”, the binding signal is 8550 fluorescence intensity (a.u.).

Regarding “TTGGATTGGTTTCTTTCTGCTCTGTTGCAGCTCCGTTGTCCGGAGTCACCTAGTGCAG”, the binding signal is 9560 fluorescence intensity (a.u.). Consider “GTTCTTGTTTTGTTCCGGTTTCTTGCGCTAATCCATCATGCGGAGTCACCTAGTGCAG”, for which the binding signal was 13000 fluorescence intensity (a.u.). As for “GCATAACCTGAACATAGCAAACCAGATATGCTAGCTTTGCCGGAGTCACCTAGTGCAG”, the binding signal was 8160 fluorescence intensity (a.u.). The same measure for “GGCACTAAATATACGTTGGTACGCTGACTTAGTCTCCCATCGGAGTCACCTAGTGCAG”: 9770 fluorescence intensity (a.u.). “TGATTTTTTAGGGAGGGGTGGTTAGTATAAGAGGGTTTTCCGGAGTCACCTAGTGCAG”: the binding signal was 20000 fluorescence intensity (a.u.). In the case of “GAGGAAATGCCTGGGAGGAGGAGGAGGGACTCGGGGCGGGCGGAGTCACCTAGTGCAG”, the binding signal was 13300 fluorescence intensity (a.u.). For the sequence “CGGTGGTGGGCGCAGACGTGCGGAGGTCGCATGGCTATCGCGGAGTCACCTAGTGCAG”, the binding signal is 8060 fluorescence intensity (a.u.). “TGGGTTGGGAATGTCCTGGTGGACTCCATGCACTATGTTTCGGAGTCACCTAGTGCAG”: the binding signal is 10700 fluorescence intensity (a.u.). With “GGGAGTCATGGTGGTGTTGCCAATTCTTTCTTCATTCTTGCGGAGTCACCTAGTGCAG”, the binding signal is 15800 fluorescence intensity (a.u.).

Take “GGACTAGAGTGCAAATTAAGCTGGGTGTGGGTGTGGGTCTCGGAGTCACCTAGTGCAG”: the binding signal was 10400 fluorescence intensity (a.u.). For “CAAGGTCCCATGTTTAATCCCCAACACGCTTATAATTTCTCGGAGTCACCTAGTGCAG”, the binding signal is 10300 fluorescence intensity (a.u.).

Regarding “TCATCCGGCCCATTAACCCAATTTGTCTCTTTCGCGTCGTCGGAGTCACCTAGTGCAG”, the binding signal was 12600 fluorescence intensity (a.u.). The same measure for “GCTGGCCACTTCACGAAGAGCTCGGTCCGTTTATTCTCACCGGAGTCACCTAGTGCAG”: 9610 fluorescence intensity (a.u.). To “TGCGCGCTCGTCGACACACCACCAGTAAGCCTCACGCTTCCGGAGTCACCTAGTGCAG” belongs 8170 fluorescence intensity (a.u.).

As to “TGTCTTGCACCACTCATTTCATATGGCCCTGCACTACGAGCGGAGTCACCTAGTGCAG”, the binding signal is 9370 fluorescence intensity (a.u.).

Turning to “GGTCATAATTTAGCTCAATCTGCTGTTTGGTTCATTGGTTCGGAGTCACCTAGTGCAG”, the binding signal was 9400 fluorescence intensity (a.u.). As to “ATGTTTTGTTTGTCAATGGCTTGTACTGGATAGAGAGGGGCGGAGTCACCTAGTGCAG”, the binding signal is 8780 fluorescence intensity (a.u.).

In the case of “TAACCACATTGCACGCACACATTCCATACGTAAACTTGAACGGAGTCACCTAGTGCAG”, the binding signal is 9090 fluorescence intensity (a.u.).
